Laboratory results reported in paper PMC3182922.

Protein sequences, listed by entry. Tags and fused reporters are not part of them.
UniProt A0A125YP06: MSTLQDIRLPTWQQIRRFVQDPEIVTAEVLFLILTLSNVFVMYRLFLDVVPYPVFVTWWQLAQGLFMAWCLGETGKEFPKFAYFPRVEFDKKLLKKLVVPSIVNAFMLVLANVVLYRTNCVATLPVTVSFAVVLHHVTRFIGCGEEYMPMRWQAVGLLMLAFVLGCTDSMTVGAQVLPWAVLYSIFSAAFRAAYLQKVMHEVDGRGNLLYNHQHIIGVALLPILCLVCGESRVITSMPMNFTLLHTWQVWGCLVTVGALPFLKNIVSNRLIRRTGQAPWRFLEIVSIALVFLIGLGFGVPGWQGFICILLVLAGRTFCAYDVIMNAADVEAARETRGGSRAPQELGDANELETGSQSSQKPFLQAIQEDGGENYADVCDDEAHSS

T1: Glideosome-Associated Protein 45 (Toxoplasma gondii (endogenous in tachyzoites)) (UniProt Q7Z289)
T1 sequence: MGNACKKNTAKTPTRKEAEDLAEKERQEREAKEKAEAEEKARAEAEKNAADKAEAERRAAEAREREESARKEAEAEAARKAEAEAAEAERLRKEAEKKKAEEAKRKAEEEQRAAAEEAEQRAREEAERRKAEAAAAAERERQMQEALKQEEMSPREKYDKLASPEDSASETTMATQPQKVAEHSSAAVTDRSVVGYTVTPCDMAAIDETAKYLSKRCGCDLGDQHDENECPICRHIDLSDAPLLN


Tests used:
[1] = target: T1, Glideosome-Associated Protein 45 (Toxoplasma gondii (endogenous in tachyzoites)); test: affinity purification with mass spectrometry; anti-GAP45 IgG cross-linked to Sepharose 4B; 1:1 mixture of lysates of un-stimulated (light) and 1% ethanol-stimulated (heavy, SILAC) tachyzoites in 20 mM HEPES pH 7.4, 150 mM NaCl, 1% Triton X-100, 0.5% NP-40; 1 h at 4°C; eluates stained with Sypro Ruby and analysed by Orbitrap LC-MS/MS
[2] = target: HA-tagged Myosin Light Chain 1 (Toxoplasma gondii); test: affinity purification with mass spectrometry; anti-HA magnetic microbeads, lysate of MLC1-HA expressing parasites; eluted proteins stained with Sypro Ruby, bands identified by LC-MS/MS

Molecule | binding [1] | binding [2]
Glideosome-Associated Protein 40 (from UniProt A0A125YP06 1-385) | binds | –
Myosin Light Chain 1 | binds | –
Glideosome-Associated Protein 50 | binds | –
Myosin A (from UniProt O00934 1-831) | binds | –
Glideosome-Associated Protein 45 (protein, UniProt Q7Z289 1-245) MGNACKKNTAKTPTRKEAEDLAEKERQEREAKEKAEAEEKARAEAEKNAADKAEAERRAAEAREREESARKEAEAEAARKAEAEAAEAERLRKEAEKKKAEEAKRKAEEEQRAAAEEAEQRAREEAERRKAEAAAAAERERQMQEALKQEEMSPREKYDKLASPEDSASETTMATQPQKVAEHSSAAVTDRSVVGYTVTPCDMAAIDETAKYLSKRCGCDLGDQHDENECPICRHIDLSDAPLLN | – | binds

These are yes or no findings as the source states them, for the method shown. Binding seen in cells or lysates may run through a third protein. Here binding means that the protein was enriched with, or labelled near, the bait; the list need not be complete.
